Measurements from the supplement of paper PMC10849652.
The other results are listed elsewhere or left out.

Chains of the proteins cited; added tags and fusions are not shown. Lines headed by an entry give the natural chain unless they say otherwise; changes in a name come on top.
UniProt Q8WV07: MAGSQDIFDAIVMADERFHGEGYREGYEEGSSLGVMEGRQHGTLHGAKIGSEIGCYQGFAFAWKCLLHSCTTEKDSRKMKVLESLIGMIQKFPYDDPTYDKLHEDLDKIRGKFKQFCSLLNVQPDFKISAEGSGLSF
UniProt P49641: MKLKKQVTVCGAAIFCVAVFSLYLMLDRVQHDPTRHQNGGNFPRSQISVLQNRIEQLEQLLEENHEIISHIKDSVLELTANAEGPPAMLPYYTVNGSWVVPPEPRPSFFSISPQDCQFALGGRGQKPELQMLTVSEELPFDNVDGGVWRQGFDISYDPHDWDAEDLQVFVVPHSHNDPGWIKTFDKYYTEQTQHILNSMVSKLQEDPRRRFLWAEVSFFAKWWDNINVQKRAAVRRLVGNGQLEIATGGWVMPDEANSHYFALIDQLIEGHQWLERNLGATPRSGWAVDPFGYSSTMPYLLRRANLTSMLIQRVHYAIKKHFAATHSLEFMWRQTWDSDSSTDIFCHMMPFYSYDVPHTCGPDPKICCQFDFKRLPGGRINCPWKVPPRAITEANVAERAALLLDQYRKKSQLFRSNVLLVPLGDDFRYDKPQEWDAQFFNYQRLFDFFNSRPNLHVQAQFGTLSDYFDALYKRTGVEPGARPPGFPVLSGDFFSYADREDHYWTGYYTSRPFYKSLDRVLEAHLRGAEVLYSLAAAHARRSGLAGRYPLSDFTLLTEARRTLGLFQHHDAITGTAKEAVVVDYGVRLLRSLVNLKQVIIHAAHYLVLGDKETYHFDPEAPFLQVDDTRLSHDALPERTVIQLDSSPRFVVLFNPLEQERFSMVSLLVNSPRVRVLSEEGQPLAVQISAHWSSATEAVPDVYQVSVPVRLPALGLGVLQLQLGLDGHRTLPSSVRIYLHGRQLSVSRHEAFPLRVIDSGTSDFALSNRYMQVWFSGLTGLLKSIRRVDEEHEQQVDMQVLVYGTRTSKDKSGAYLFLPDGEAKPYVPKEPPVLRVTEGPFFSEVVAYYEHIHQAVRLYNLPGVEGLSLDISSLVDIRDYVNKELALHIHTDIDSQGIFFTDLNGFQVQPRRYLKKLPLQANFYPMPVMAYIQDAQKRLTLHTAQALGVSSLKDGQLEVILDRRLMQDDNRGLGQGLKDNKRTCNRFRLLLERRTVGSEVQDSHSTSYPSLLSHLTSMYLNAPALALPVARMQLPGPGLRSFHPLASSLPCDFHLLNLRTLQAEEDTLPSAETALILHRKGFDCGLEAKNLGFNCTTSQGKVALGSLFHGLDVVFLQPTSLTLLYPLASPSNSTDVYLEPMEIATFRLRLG
UniProt Q96A72, whole entry, looked up: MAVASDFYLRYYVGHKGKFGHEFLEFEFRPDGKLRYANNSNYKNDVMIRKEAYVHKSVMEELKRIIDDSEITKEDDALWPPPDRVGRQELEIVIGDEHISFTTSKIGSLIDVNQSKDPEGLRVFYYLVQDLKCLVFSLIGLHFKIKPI
UniProt P02788: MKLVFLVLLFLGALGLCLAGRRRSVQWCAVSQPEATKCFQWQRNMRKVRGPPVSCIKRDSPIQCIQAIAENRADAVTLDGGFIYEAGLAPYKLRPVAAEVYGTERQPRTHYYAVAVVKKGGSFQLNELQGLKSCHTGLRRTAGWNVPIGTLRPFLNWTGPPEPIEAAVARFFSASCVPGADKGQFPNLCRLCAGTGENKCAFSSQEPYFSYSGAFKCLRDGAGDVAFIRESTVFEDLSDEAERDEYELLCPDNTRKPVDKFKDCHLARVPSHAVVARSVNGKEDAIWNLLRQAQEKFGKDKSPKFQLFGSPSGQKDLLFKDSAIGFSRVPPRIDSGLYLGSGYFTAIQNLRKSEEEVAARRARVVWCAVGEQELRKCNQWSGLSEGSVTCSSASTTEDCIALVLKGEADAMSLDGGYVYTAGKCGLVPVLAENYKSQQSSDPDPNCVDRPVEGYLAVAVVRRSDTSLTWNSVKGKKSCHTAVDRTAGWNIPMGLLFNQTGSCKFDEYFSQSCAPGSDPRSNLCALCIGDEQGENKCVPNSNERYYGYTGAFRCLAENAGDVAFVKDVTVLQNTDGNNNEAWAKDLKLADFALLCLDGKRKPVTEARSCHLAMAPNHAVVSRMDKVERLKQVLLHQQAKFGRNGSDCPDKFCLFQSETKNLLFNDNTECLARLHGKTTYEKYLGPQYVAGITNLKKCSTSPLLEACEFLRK
UniProt P29966: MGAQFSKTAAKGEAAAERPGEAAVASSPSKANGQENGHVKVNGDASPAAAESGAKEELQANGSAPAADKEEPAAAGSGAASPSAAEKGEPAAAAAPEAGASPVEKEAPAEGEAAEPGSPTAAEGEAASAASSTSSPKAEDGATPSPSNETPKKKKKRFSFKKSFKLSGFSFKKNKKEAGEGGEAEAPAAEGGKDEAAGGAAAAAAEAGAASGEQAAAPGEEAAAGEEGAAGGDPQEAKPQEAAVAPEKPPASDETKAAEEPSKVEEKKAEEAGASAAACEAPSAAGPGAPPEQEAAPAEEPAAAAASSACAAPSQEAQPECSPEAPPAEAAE
UniProt P43366: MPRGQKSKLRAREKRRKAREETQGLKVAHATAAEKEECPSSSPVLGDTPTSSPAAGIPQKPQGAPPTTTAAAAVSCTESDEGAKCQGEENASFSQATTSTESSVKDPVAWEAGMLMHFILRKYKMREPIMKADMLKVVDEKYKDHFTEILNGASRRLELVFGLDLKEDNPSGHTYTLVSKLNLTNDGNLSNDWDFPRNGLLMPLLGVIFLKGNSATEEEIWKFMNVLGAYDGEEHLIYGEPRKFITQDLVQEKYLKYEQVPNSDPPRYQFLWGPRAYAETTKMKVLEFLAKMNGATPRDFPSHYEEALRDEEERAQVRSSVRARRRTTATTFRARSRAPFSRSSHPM
UniProt O95232: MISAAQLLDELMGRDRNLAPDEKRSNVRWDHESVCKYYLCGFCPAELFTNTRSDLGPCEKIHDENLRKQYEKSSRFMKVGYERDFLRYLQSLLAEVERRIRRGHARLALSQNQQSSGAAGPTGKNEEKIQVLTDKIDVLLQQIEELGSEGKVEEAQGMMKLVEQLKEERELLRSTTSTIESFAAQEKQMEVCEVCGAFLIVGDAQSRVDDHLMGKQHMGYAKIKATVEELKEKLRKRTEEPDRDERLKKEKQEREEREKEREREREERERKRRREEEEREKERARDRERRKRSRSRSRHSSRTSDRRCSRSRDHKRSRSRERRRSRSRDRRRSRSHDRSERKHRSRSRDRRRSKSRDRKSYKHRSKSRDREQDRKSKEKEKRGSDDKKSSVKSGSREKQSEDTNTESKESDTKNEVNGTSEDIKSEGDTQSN
UniProt O60337: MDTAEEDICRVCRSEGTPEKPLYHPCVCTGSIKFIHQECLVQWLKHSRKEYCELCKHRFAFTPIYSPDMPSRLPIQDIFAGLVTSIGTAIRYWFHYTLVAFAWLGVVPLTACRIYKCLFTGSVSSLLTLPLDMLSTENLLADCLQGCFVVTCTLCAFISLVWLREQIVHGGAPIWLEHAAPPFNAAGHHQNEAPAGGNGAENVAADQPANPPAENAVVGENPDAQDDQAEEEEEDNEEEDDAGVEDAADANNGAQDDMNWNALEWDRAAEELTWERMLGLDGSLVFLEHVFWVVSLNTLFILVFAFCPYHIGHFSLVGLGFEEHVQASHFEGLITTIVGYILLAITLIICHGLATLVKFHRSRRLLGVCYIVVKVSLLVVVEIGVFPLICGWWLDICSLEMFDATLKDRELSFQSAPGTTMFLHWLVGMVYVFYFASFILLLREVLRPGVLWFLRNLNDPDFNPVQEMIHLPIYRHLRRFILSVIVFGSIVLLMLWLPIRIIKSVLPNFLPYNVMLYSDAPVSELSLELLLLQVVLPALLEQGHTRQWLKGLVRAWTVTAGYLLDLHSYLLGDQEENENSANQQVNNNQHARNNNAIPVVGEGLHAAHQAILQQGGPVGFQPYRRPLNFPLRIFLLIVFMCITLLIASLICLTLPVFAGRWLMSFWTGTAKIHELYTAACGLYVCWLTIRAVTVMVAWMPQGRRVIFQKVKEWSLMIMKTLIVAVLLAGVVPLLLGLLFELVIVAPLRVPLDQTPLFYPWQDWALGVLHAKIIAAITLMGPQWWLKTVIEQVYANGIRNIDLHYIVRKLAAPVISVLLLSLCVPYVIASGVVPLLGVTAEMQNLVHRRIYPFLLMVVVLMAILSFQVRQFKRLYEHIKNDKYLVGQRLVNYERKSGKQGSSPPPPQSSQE
UniProt O95372: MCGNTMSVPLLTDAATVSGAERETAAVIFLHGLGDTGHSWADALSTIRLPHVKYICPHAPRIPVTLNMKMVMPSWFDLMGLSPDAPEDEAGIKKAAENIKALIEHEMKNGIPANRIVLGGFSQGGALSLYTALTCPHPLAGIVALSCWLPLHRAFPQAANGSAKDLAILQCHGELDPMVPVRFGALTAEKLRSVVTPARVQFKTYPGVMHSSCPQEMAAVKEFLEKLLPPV
UniProt Q9Y4Z0: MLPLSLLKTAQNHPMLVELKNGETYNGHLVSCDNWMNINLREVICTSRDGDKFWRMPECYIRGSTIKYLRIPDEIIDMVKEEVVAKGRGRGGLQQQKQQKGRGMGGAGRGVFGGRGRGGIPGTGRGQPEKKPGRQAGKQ
UniProt Q8ND56: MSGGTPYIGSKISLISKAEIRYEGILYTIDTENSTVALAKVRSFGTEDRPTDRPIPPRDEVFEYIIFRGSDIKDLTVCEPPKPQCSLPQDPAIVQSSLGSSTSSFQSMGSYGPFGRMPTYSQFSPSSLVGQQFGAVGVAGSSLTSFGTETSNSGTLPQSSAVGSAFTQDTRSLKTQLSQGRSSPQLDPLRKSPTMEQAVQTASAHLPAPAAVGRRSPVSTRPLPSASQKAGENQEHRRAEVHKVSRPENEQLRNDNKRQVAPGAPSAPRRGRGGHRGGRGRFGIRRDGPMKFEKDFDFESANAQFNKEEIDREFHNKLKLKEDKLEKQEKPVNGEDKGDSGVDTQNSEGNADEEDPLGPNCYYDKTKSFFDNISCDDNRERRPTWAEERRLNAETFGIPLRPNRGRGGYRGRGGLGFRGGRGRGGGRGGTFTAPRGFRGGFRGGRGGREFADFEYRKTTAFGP
UniProt P20645: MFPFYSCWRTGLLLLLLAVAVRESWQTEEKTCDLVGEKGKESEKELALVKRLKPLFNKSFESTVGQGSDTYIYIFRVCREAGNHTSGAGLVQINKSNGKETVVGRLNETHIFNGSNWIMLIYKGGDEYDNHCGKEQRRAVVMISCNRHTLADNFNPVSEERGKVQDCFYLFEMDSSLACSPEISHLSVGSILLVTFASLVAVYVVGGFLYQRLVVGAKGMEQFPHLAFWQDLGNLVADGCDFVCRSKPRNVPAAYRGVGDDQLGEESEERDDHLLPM
UniProt Q8IV50: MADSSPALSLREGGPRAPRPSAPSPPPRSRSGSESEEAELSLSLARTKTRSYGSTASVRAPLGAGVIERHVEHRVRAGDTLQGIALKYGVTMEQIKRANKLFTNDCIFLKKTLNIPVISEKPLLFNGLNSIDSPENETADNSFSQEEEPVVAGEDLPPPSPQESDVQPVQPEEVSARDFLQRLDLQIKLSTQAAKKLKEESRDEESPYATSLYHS
UniProt Q8WZA0: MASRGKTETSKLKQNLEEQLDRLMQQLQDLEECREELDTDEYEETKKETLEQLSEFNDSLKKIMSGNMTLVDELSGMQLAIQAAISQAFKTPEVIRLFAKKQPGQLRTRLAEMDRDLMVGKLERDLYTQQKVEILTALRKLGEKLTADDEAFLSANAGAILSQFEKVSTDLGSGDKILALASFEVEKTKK
UniProt P56192: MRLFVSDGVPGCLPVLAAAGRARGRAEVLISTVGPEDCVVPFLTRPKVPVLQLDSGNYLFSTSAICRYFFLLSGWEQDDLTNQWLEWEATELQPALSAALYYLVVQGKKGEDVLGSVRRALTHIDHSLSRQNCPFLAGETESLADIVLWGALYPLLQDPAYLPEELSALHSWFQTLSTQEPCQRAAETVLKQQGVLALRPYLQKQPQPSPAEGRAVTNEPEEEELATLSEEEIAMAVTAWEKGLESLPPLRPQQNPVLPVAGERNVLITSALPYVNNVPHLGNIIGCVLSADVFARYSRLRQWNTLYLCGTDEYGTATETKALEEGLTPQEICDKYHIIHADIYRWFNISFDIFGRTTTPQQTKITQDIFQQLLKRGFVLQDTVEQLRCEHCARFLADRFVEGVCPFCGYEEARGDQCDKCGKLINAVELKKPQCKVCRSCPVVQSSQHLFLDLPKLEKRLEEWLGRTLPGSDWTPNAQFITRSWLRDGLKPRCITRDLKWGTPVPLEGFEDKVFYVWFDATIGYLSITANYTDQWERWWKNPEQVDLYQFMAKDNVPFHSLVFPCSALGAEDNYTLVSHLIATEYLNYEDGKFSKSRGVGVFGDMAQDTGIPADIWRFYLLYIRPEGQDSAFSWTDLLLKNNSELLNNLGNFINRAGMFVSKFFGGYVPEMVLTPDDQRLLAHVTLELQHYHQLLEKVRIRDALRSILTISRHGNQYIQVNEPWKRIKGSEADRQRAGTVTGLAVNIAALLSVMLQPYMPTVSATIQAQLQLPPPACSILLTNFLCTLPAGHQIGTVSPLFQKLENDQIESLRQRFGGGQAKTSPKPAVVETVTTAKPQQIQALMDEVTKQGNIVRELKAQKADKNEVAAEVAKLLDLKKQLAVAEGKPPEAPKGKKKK

Columns and labels:
Experiment in all cases: log2 fold change, soluble protein after heating vs DMSO (PISA); higher = thermal stabilisation; K562 cells, 10 uM, 30 min; active = over 0.2 and 3.5 SD of the protein, either way, in both replicates (recomputed)
[1] = compound: NC(=O)Nc1cc(-c2cccc(F)c2)sc1C(=O)N[C@H]1CCCNC1
Outline: (§1)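 K562 cells at 2×10^6 cells/mL were treated for 30 min with 10 μM compound, and aliquots were heated for 3 min over 48°C-58°C before pooling. Extraction used PBS with 0.5% NP-40 at 4°C, and soluble protein was the supernatant after 21,000xg for 90 min, measured by TMTpro 16plex LC-MS/MS with channel sums equalised. Thermal stability values, relative to control samples and from duplicates, are log2 fold changes.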

[2] = compound: NC(=O)c1cnc(N[C@@H]2CCCC[C@@H]2N)nc1Nc1cccc(-n2nccn2)c1
Outline: as §1

[3] = compound: NC1(c2ccc(-c3nc4ccn5c(=O)[nH]nc5c4cc3-c3ccccc3)cc2)CCC1
Outline: as §1

[4] = compound: NCC(=O)Nc1ccc(-n2nc(C(F)(F)F)cc2-c2ccc3c(ccc4ccccc43)c2)cc1
Outline: as §1

[5] = compound: Nc1ccccc1NC(=O)c1ccc(CNC(=O)OCc2cccnc2)cc1 [entinostat]
Outline: as §1

[6] = compound: O=C(CCCCCCC(=O)Nc1ccccc1)NO [vorinostat]
Outline: as §1

[7] = compound: O=C(CCCCCCNC(=O)c1cnc(N(c2ccccc2)c2ccccc2Cl)nc1)NO [citarinostat]
Outline: as §1

[8] = compound: O=C(O)c1ccc2c(c1)nc(Nc1cccc(Cl)c1)c1ccncc12 [silmitasertib]
Outline: as §1

[9] = compound: O=C1NC(=O)C(c2cnc3ccccn23)=C1c1cn2c3c(cc(F)cc13)CN(C(=O)N1CCCCC1)CC2
Outline: as §1

[10] = compound: c1cc(OCCN2CCCCC2)cc(-c2n[nH]c3ccc(-c4nnc[nH]4)cc23)c1
Outline: as §1

Target	log2 fold change [1]	log2 fold change [2]	log2 fold change [3]	log2 fold change [4]	log2 fold change [5]	log2 fold change [6]	log2 fold change [7]	log2 fold change [8]	log2 fold change [9]	log2 fold change [10]
LTO1 (UniProt Q8WV07)	inactive: -0.077	inactive: 0.009	inactive: -0.011	inactive: 0.094	inactive: -0.097	inactive: 0.005	inactive: 0.044	inactive: 0.158	inactive: -0.015	inactive: -0.126
MAN2A2 (UniProt P49641)	inactive: -0.023	inactive: -0.002	inactive: -0.016	inactive: 0.115	inactive: -0.021	inactive: 0.025	inactive: 0.016	inactive: -0.035	inactive: -0.023	inactive: -0.075
MACROD1 (UniProt Q9BQ69)	inactive: 0.01	inactive: 0.066	inactive: -0.087	inactive: -0.147	inactive: 0.056	inactive: 0.083	inactive: 0.022	inactive: -0.106	inactive: -0.157	inactive: -0.054
MALSU1 (UniProt Q96EH3)	inactive: -0.024	inactive: -0.07	inactive: 0	inactive: -0.035	inactive: -0.031	inactive: -0.173	inactive: 0.008	inactive: 0.01	inactive: 0.002	inactive: -0.041
MAPK14 isoform 2 (UniProt Q16539)	inactive: -0.052	inactive: 0.028	inactive: -0.192	inactive: -0.168	inactive: 0.016	inactive: -0.055	inactive: 0.085	inactive: 0.477	inactive: -0.004	inactive: 0.024
LZTFL1 (UniProt Q9NQ48)	inactive: 0.029	inactive: -0.036	inactive: -0.1	inactive: -0.026	inactive: 0.01	inactive: 0.055	inactive: 0.03	inactive: -0.01	inactive: 0	inactive: -0.068
LSM12 isoform 2 (UniProt Q3MHD2)	inactive: 0.084	inactive: 0.006	inactive: -0.005	inactive: -0.009	inactive: 0.049	inactive: -0.031	inactive: 0.052	inactive: -0.026	inactive: 0.009	inactive: -0.042
LYSMD1 (UniProt Q96S90)	inactive: 0.134	inactive: 0.012	inactive: -0.137	inactive: -0.021	inactive: 0.031	inactive: -0.007	inactive: -0.03	inactive: 0.005	inactive: -0.03	inactive: -0.016
MAN1A2 (UniProt O60476)	inactive: 0.036	inactive: 0.013	inactive: -0.082	inactive: -0.065	inactive: 0.009	inactive: -0.007	inactive: 0.012	inactive: 0.02	inactive: -0.051	inactive: -0.047
MAGOHB (UniProt Q96A72)	inactive: -0.081	inactive: 0.177	inactive: -0.039	inactive: -0.132	inactive: 0.016	inactive: -0.023	inactive: 0.043	inactive: -0.006	inactive: 0.002	inactive: -0.089
LTF (UniProt P02788)	inactive: 0.68	inactive: 0.106	inactive: 0.001	inactive: -0.006	inactive: -0.079	inactive: -0.021	inactive: 0.066	inactive: 0.195	inactive: 0.071	inactive: 0.775
MARCKS (UniProt P29966)	inactive: -0.018	inactive: 0.108	inactive: 0.038	inactive: 0.07	inactive: -0.074	inactive: -0.159	inactive: 0.062	inactive: -0.021	inactive: 0.031	inactive: -0.08
LUC7L2 (UniProt Q9Y383)	inactive: -0.221	inactive: -0.025	inactive: 0.09	inactive: -0.133	inactive: 0.025	inactive: 0.029	inactive: 0.074	inactive: -0.233	inactive: 0.002	inactive: -0.095
MAPKAPK5 (UniProt Q8IW41)	active: 0.382	inactive: 0.029	inactive: -0.051	inactive: -0.009	inactive: 0.027	inactive: 0.053	inactive: -0.003	inactive: -0.044	inactive: -0.078	inactive: 0.213
MAGEB1 (UniProt P43366)	inactive: 0.108	inactive: 0.035	inactive: 0.217	inactive: 0.115	inactive: -0.014	inactive: 0.053	inactive: -0.037	inactive: 0.231	inactive: 0.336	inactive: -0.239
LUC7L3 (UniProt O95232)	inactive: -0.203	inactive: -0.017	inactive: 0.058	inactive: -0.076	inactive: -0.051	inactive: -0.008	inactive: 0.083	inactive: -0.156	inactive: 0.086	inactive: -0.086
MARCHF6 (UniProt O60337)	inactive: 0.105	inactive: -0.098	inactive: -0.075	inactive: -0.023	inactive: 0	inactive: -0.013	inactive: 0.063	inactive: -0.062	inactive: -0.011	inactive: -0.063
MAP3K4 isoform 2 (UniProt Q9Y6R4)	inactive: 0.036	inactive: -0.025	inactive: -0.104	inactive: -0.025	inactive: -0.027	inactive: -0.019	inactive: 0.006	inactive: 0	inactive: -0.029	inactive: -0.075
LYPLA2 (UniProt O95372)	inactive: 0.02	inactive: 0.043	inactive: -0.031	inactive: 0.09	inactive: 0.114	inactive: -0.065	inactive: 0.018	inactive: -0.048	inactive: 0	inactive: 0.036
LSM4 (UniProt Q9Y4Z0)	inactive: 0.033	inactive: 0.093	inactive: 0.016	inactive: 0.084	inactive: 0.008	inactive: 0.016	inactive: 0.058	inactive: 0.002	inactive: 0.036	inactive: -0.05
MAP2K7 isoform 4 (UniProt O14733)	inactive: 0.008	inactive: -0.051	inactive: -0.078	inactive: -0.015	inactive: 0.015	inactive: 0.084	inactive: 0.041	inactive: -0.019	inactive: -0.052	inactive: -0.044
MAP1A isoform 2 (UniProt P78559)	inactive: 0.023	inactive: -0.017	inactive: -0.006	inactive: 0.074	inactive: -0.036	inactive: -0.018	inactive: -0.02	inactive: 0.017	inactive: 0.033	inactive: -0.05
LSM14A isoform 2 (UniProt Q8ND56)	inactive: -0.11	inactive: -0.039	inactive: 0	inactive: -0.089	inactive: -0.06	inactive: -0.011	inactive: -0.095	inactive: -0.023	inactive: -0.044	inactive: -0.03
LRRC8A (UniProt Q8IWT6)	inactive: 0.039	inactive: 0.067	inactive: 0.055	inactive: -0.044	inactive: -0.067	inactive: -0.026	inactive: 0.05	inactive: 0.075	inactive: 0.135	inactive: -0.048
M6PR (UniProt P20645)	inactive: -0.057	inactive: 0.132	inactive: 0.023	inactive: 0.056	inactive: 0.013	inactive: -0.027	inactive: -0.078	inactive: -0.006	inactive: -0.007	inactive: 0.041
LYSMD2 (UniProt Q8IV50)	inactive: -0.032	inactive: -0.045	inactive: -0.028	inactive: -0.023	inactive: 0.055	inactive: -0.01	inactive: -0.032	inactive: 0.025	inactive: -0.08	inactive: -0.012
LZIC isoform 2 (UniProt Q8WZA0)	inactive: -0.038	inactive: -0.009	inactive: -0.034	inactive: 0.006	inactive: -0.061	inactive: -0.038	inactive: 0	inactive: -0.048	inactive: -0.04	inactive: 0.007
MARS (UniProt P56192)	inactive: 0.016	inactive: -0.053	inactive: -0.016	inactive: 0.002	inactive: 0.017	inactive: 0.072	inactive: -0.01	inactive: 0.047	inactive: 0.116	inactive: -0.08

In another format: results already given
Target,log2 fold change [1],log2 fold change [2],log2 fold change [3],log2 fold change [4],log2 fold change [5],log2 fold change [6],log2 fold change [7],log2 fold change [8],log2 fold change [9],log2 fold change [10]
LTO1 (UniProt Q8WV07),inactive: -0.077,inactive: 0.009,inactive: -0.011,inactive: 0.094,inactive: -0.097,inactive: 0.005,inactive: 0.044,inactive: 0.158,inactive: -0.015,inactive: -0.126
MAN2A2 (UniProt P49641),inactive: -0.023,inactive: -0.002,inactive: -0.016,inactive: 0.115,inactive: -0.021,inactive: 0.025,inactive: 0.016,inactive: -0.035,inactive: -0.023,inactive: -0.075
MACROD1 (UniProt Q9BQ69),inactive: 0.01,inactive: 0.066,inactive: -0.087,inactive: -0.147,inactive: 0.056,inactive: 0.083,inactive: 0.022,inactive: -0.106,inactive: -0.157,inactive: -0.054
MALSU1 (UniProt Q96EH3),inactive: -0.024,inactive: -0.07,inactive: 0,inactive: -0.035,inactive: -0.031,inactive: -0.173,inactive: 0.008,inactive: 0.01,inactive: 0.002,inactive: -0.041
MAPK14 isoform 2 (UniProt Q16539),inactive: -0.052,inactive: 0.028,inactive: -0.192,inactive: -0.168,inactive: 0.016,inactive: -0.055,inactive: 0.085,inactive: 0.477,inactive: -0.004,inactive: 0.024
LZTFL1 (UniProt Q9NQ48),inactive: 0.029,inactive: -0.036,inactive: -0.1,inactive: -0.026,inactive: 0.01,inactive: 0.055,inactive: 0.03,inactive: -0.01,inactive: 0,inactive: -0.068
